In publication PMC10763564 (RSC Chemical Biology, 2023):

Experiment: general procedure: Fmoc solid-phase peptide synthesis; Rink amide (aminomethyl)polystyrene resin (substitution of 0.70 mmol/g)
Details: whole synthesis, scale of the general procedure 200 μmols

Substance	final HPLC purity [%]
H-CVHWDCRQWWQPSC-NH2 (TBMB)	95
H-CVHWDFRCQWWQPSC-NH2 (TBMB)	> 98
H-GVHWDFRQWWQPS-NH2	> 98
Mal-GSGCVHWDCRQWC-NH2 (TBMB)	>98
N3-GSGCVHWDCRQWC-NH2 (TBMB)	> 98
N3-TFFYGGSRGKRNNFKTEEY-NH2	> 98
PEPTIDE1{C.V.H.W.D.C.R.Q.W.C.[am]}|CHEM1{[TBMB]}$PEPTIDE1,CHEM1,1:R3-1:R1|PEPTIDE1,CHEM1,6:R3-1:R2|PEPTIDE1,CHEM1,10:R3-1:R3$$$V2.0	> 98
PEPTIDE1{C.V.H.W.D.F.R.Q.W.C.Q.P.S.C.[am]}|CHEM1{[TBMB]}$PEPTIDE1,CHEM1,1:R3-1:R1|PEPTIDE1,CHEM1,10:R3-1:R2|PEPTIDE1,CHEM1,14:R3-1:R3$$$V2.0	> 98
sCy5-CVHWDCRQWWQPSC-NH2 (TBMB)	> 98
sCy5-CVHWDFRCQWWQPSC-NH2 (TBMB)	90
sCy5-CVHWDFRQWCQPSC-NH2 (TBMB)	> 98
sCy5-GSGCVHWDCRQWC-NH2 (TBMB)	> 98
sCy5-GVHWDFRQWWQPS-NH2	> 98

HELM strings list residues between dots; [ac] is acetyl, [am] amide, other brackets name non-standard units.
